# Primary screen of a compound library

By UniProt entry, the sequences of proteins in these tests, tags left out.
UniProt E9BF75, entry or part of it: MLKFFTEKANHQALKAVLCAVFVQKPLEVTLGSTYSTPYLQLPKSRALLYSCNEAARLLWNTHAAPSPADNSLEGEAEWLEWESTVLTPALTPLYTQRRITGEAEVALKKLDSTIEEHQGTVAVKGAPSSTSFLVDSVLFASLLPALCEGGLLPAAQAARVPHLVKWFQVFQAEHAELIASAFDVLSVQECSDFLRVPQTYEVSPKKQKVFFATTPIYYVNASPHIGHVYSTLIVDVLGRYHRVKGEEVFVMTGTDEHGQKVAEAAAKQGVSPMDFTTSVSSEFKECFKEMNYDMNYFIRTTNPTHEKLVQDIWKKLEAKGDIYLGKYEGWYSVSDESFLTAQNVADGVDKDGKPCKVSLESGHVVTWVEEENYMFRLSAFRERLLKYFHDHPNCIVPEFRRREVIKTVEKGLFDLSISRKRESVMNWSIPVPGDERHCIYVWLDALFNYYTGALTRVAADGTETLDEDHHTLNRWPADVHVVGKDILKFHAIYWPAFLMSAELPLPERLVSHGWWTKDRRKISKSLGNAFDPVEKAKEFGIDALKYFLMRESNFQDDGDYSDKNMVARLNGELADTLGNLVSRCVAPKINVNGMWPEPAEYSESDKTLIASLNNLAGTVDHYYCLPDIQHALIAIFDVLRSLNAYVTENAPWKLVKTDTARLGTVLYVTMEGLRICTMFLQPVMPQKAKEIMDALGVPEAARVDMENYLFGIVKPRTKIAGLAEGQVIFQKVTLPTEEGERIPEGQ

Measurements from “University of Dundee, Small-Polar-MMV Screening Library” (2021), ChEMBL document CHEMBL3988442.

LdMetRS: 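Methionyl-tRNA synthetase (putative), Leishmania donovani (UniProt E9BF75). Primary screen of methionyl-tRNA synthetase; the read-out is not stated. The test concentration is not given. Values are per cent inhibition. Size under these conditions: about 68,000 compounds, about 24 of them at 50% or above in at least one test.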
Mtb heat-shock: 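Assay on Mycobacterium tuberculosis, filed only as a heat shock assay from Cornell; the read-out is not stated. The concentration is filed as 10 mM, unlikely as a test dose, so the dose is not known. Direction is inferred from retests: higher values go with stronger inhibition. About 69,000 compounds were tested under these conditions; 1.4% (about 930) showed 50% or more at least once.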

All values are in %.
The controls that fix the scale are not given in the record; negative values are as filed.
Compounds were drawn at random from those tested, without regard to their results.
A dash means the value is not listed here; it may have been measured.

| compound | LdMetRS | Mtb heat-shock |
|---|---|---|
| `CC(C)c1nn(C)c(Cl)c1CNCc1cccnc1N(C)C.Cl` | - | 10.44% |
| `O=C1C(NCc2nnc3n2CCCC3)CCN1c1ccccc1` (stereo unspecified) | 10.43% | 14.22% |
| `CN1CC2(CCN(C(=O)c3cccnc3)CC2)c2cccc(F)c21` | 6.011% | - |
| `[H][C@]12CC[C@@]3(N=C(c4ccccc4)NC3=O)[C@@]1([H])CN(Cc1ccncc1)C2` | - | -48.52% |
| `Cc1ccc(CN(Cc2[nH]cnc2C)C2CC(C)(C)NC(C)(C)C2)o1.O=C(O)CC(O)(CC(=O)O)C(=O)O` | - | -26.84% |
| `Cc1nc(C)c(CN2CCOC[C@H](Oc3ccccc3)C2)s1` | 8.143% | -41.95% |
| `Cc1nn(C)c(C)c1C(C)NC(=O)c1cc(CN2CCC(O)CC2)on1` (stereo unspecified) | 11.53% | -0.5311% |
| `NC1CCc2nc(-c3ccncc3)nc(Nc3cccc(F)c3)c2C1` (stereo unspecified) | 16.86% | - |
| `COc1cccc(CN(Cc2ccco2)Cc2cnc(C)n2C)c1` | 10.38% | - |
| `CN1CCN(C(=O)Cc2cccc(F)c2)Cc2cccnc21` | 2.362% | - |
| `CC(C)C(C(=O)NC1CC1)n1cnc2cc(F)c(F)cc21` (stereo unspecified) | -1.393% | -20.46% |
| `CCC(C)(CC(=O)OC)NCc1cc(C)on1` (stereo unspecified) | 11.18% | -116.8% |
| `O=C(Nc1ccccc1)C1CN(Cc2nccs2)CC12CCOCC2` (stereo unspecified) | 4.301% | -10.51% |
| `CCn1c(Cn2cncn2)nnc1C1CCN(C2CCOCC2)CC1` | -4.31% | -30.13% |
| `O=C1[C@H]2CN(C(=O)[C@H]3CCCO3)C[C@H]2CN1CCN1CCCC1` | 12.32% | - |
| `Cl.Cl.O=C(CN1CCN(CC(O)C2CC2)CC1)NCc1ccc(F)cc1` (stereo unspecified) | - | -7.66% |
| `CN(C)S(=O)(=O)c1ccc(CNC(=O)C2CC2)cc1` | 9.89% | -20.12% |
| `COCC1CN(C(=O)Nc2cc(C(F)(F)F)ccc2F)CCO1` (stereo unspecified) | 16.48% | 7.498% |
| `COc1ccc2c(c1)C(=O)NC1(CC2)CCN(Cc2ccccn2)C1` (stereo unspecified) | 12.11% | 5.089% |
| `O=C(O)C(F)(F)F.[H][C@@]12CCN(Cc3ccc(C)s3)C[C@@]1([H])[C@H](C(=O)NCC1CC1)CCO2` | - | -17.88% |
| `Cc1cnn(CC(C)NCc2cccc(C#N)c2)c1` (stereo unspecified) | 11.91% | -37.11% |
| `Cc1nccn1-c1ccc(NC(=O)C2CCCN2Cc2ccoc2)cc1` (stereo unspecified) | 8.462% | -25.32% |
| `CCc1ccc(C(=O)N2CCN(c3nc(C)cc(OC)n3)CC2)o1` | 11.35% | 0.4147% |
| `CCC1CCCN(C(=O)NCc2cccnc2-n2cccn2)C1` (stereo unspecified) | 14.16% | -14.01% |
| `Cc1ccc(CN2Cc3nccn3CC(Cn3cncn3)C2)s1.O=C(O)C(F)(F)F` (stereo unspecified) | - | -24.96% |
| `c1ccc(CCCN2CCCN(c3ncnc4[nH]ccc34)CC2)cc1` | 19.27% | 6.817% |
| `CN(C)S(=O)(=O)NCC(O)c1cc2ccccc2s1` (stereo unspecified) | 18.8% | -44.19% |
| `CC(=O)N(Cc1noc(C)n1)C1CCN(Cc2cnc(C)s2)C1` (stereo unspecified) | 13.81% | 9.67% |
| `N#Cc1ccc(N2CCCC3(CCN(c4cccnc4)CC3)C2)cc1` | -1.37% | - |
| `COc1cccc(C2(NC(=O)CCNC(C)=O)CC2)c1` | 3.623% | 5.22% |
| `O=c1[nH]nc(CNCc2ccc(OC34CCCN(CC3)C4)cc2)[nH]1` (stereo unspecified) | 23.49% | -6.374% |
| `Cc1ncc(CN2CCOCC2)c2cc(C(=O)c3ccc(Br)cc3)oc12` | 18.7% | - |
| `Cc1noc(C)c1CN1CC[C@@H](OCC2CC2)[C@@H](Cc2ccccc2)C1.O=C(O)C(F)(F)F` | - | 8.04% |

The last 3 entries again:

{"compound": "O=c1[nH]nc(CNCc2ccc(OC34CCCN(CC3)C4)cc2)[nH]1", "stereo": "stereo unspecified", "LdMetRS": 23.49, "Mtb heat-shock": -6.374}
{"compound": "Cc1ncc(CN2CCOCC2)c2cc(C(=O)c3ccc(Br)cc3)oc12", "LdMetRS": 18.7}
{"compound": "Cc1noc(C)c1CN1CC[C@@H](OCC2CC2)[C@@H](Cc2ccccc2)C1.O=C(O)C(F)(F)F", "Mtb heat-shock": 8.04}